Results published in patent US20230242871A1, “GENERATION OF PRIMORDIAL GERM CELLS AND METHODS OF USING THE SAME” (The Board of Trustees of the Leland Stanfor Junior …, priority 2020, published 2023).

B1: CD218a (protein, UniProt Q13478 19-541, looked up)
Interleukin-18 receptor 1: AESCTSRPHITVVEGEPFYLKHCSCSLAHEIETTTKSWYKSSGSQEHVELNPRSSSRIALHDCVLEFWPVELNDTGSYFFQMKNYTQKWKLNVIRRNKHSCFTERQVTSKIVEVKKFFQITCENSYYQTLVNSTSLYKNCKKLLLENNKNPTIKKNAEFEDQGYYSCVHFLHHNGKLFNITKTFNITIVEDRSNIVPVLLGPKLNHVAVELGKNVRLNCSALLNEEDVIYWMFGEENGSDPNIHEEKEMRIMTPEGKWHASKVLRIENIGESNLNVLYNCTVASTGGTDTKSFILVRKADMADIPGHVFTRGMIIAVLILVAVVCLVTVCVIYRVDLVLFYRHLTRRDETLTDGKTYDAFVSYLKECRPENGEEHTFAVEILPRVLEKHFGYKLCIFERDVVPGGAVVDEIHSLIEKSRRLIIVLSKSYMSNEVRYELESGLHEALVERKIKIILIEFTPVTDFTFLPQSLKLLKSHRVLKWKADKSLSYNSRFWKNLLYLMPAKTVKPGRDEPEVLPVLSES
B2: CD70 (protein, UniProt P32970 1-193, looked up)
CD70 antigen: MPEEGSGCSVRRRPYGCVLRAALVPLVAGLVICLVVCIQRFAQAQQQLPLESLGWDVAELQLNHTGPQQDPRLYWQGGPALGRSFLHGPELDKGQLRIHRDGIYMVHIQVTLAICSSTTASRHHPTTLAVGICSPASRSISLLRLSFHQGCTIASQRLTPLARGDTLCTNLTGTLLPSRNTDETFFGVQWVRP
B3: CD229 (protein, UniProt Q9HBG7 48-655, looked up)
T-lymphocyte surface antigen …: KDSAPTVVSGILGGSVTLPLNISVDTEIENVIWIGPKNALAFARPKENVTIMVKSYLGRLDITKWSYSLCISNLTLNDAGSYKAQINQRNFEVTTEEEFTLFVYEQLQEPQVTMKSVKVSENFSCNITLMCSVKGAEKSVLYSWTPREPHASESNGGSILTVSRTPCDPDLPYICTAQNPVSQRSSLPVHVGQFCTDPGASRGGTTGETVVGVLGEPVTLPLALPACRDTEKVVWLFNTSIISKEREEAATADPLIKSRDPYKNRVWVSSQDCSLKISQLKIEDAGPYHAYVCSEASSVTSMTHVTLLIYRRLRKPKITWSLRHSEDGICRISLTCSVEDGGNTVMYTWTPLQKEAVVSQGESHLNVSWRSSENHPNLTCTASNPVSRSSHQFLSENICSGPERNTKLWIGLFLMVCLLCVGIFSWCIWKRKGRCSVPAFCSSQAEAPADTPEPTAGHTLYSVLSQGYEKLDTPLRPARQQPTPTSDSSSDSNLTTEEDEDRPEVHKPISGRYEVFDQVTQEGAGHDPAPEGQADYDPVTPYVTEVESVVGENTMYAQVFNLQGKTPVSQKEESSATIYCSIRKPQVVPPPQQNDLEIPESPTYENFT
B4: CD244 (2B4) (protein, UniProt Q9BZW8 22-370, looked up)
Natural killer cell receptor …: CQGSADHVVSISGVPLQLQPNSIQTKVDSIAWKKLLPSQNGFHHILKWENGSLPSNTSNDRFSFIVKNLSLLIKAAQQQDSGLYCLEVTSISGKVQTATFQVFVFESLLPDKVEKPRLQGQGKILDRGRCQVALSCLVSRDGNVSYAWYRGSKLIQTAGNLTYLDEEVDINGTHTYTCNVSNPVSWESHTLNLTQDCQNAHQEFRFWPFLVIIVILSALFLGTLACFCVWRRKRKEKQSETSPKEFLTIYEDVKDLKTRRNHEQEQTFPGGGSTIYSMIQSQSSAPTSQEPAYTLYSLIQPSRKSGSRKRNHSPSFNSTIYEVIGKSQPKAQNPARLSRKELENFDVYS

What follows are molecules tested on undifferentiated hPSC (D0) (assay: High-throughput cell-surface marker screening (LEGENDScreen), %PE+). Settings: percentage of cells bound to the PE-conjugated antibody (LEGENDScreen).
Assay type: cell-based, human

| Molecule | % PE+ in H1 UD [%] |
| --- | --- |
| B1 | 0.12 |
| B2 | 0.25 |
| B3 | 0.19 |
| B4 | 0.53 |

Each molecule was assayed on D3.5 SOX17-GFP+ PGCs in the same assay as above. Settings: percentage of cells bound to the PE-conjugated antibody (LEGENDScreen).
Assay type: cell-based, human

| Molecule | % PE+ in PGCs [%] |
| --- | --- |
| B1 | 0 |
| B2 | 0 |
| B3 | 0.000948 |
| B4 | 0 |

Each molecule was assayed on D3.5 SOX17-GFP- non-PGCs in the same assay as above. Settings: percentage of cells bound to the PE-conjugated antibody (LEGENDScreen).
Assay type: cell-based, human

| Molecule | % PE+ in non-PGCs [%] |
| --- | --- |
| B1 | 0.001522 |
| B2 | 0.0005063 |
| B3 | 9.259E-05 |
| B4 | 0.0001516 |
